PubChem BioAssay AID1259405 | NCATS | 2018

- Purpose: 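Knock-downs that lift recombinant protein yield in hamster ovary cells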 (primary screen)
- System: Chinese hamster CHO-K1 ovary cells with stable secreted eGFP expression
- Reagents: single siRNA against mouse genes, 0.8 pmol siRNA per well (2 µl of 400 nM stock)
- Timing: 3 days
- Measured: 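Percent of the per-plate non-targeting control median for intracellular GFP per well by laser scanning cytometry and for cell viability by ATP luminescence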
- Direction: GFP, % of control: higher = more GFP per well, higher productivity; viability (ATP), % of control: higher = more viable cells (more ATP)
- Call rule: 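Called active when intracellular GFP, relative to negative control, is at or above 120%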
The whole screen tested about 50,000 reagents; this is a part drawn at random. About 4,000 of all reagents (8%) count as active. 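Mouse siRNA library applied to hamster cells; one well for each siRNA.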 Reagents against one gene are numbered here. No sequences are given here.

gene | siRNA no. | GFP, % of control | viability (ATP), % of control | outcome
Adarb2 (adenosine deaminase, RNA-specific, B2) | 1 | 72.9 | 66.1 | inactive
Adarb2 (adenosine deaminase, RNA-specific, B2) | 2 | 59.8 | 67.5 | inactive
Adarb2 (adenosine deaminase, RNA-specific, B2) | 3 | 82.3 | 113 | inactive
Fv4 (Friend virus susceptibility 4) | 1 | 98.1 | 93.9 | inactive
Fv4 (Friend virus susceptibility 4) | 2 | 75 | 80.5 | inactive
Fv4 (Friend virus susceptibility 4) | 3 | 115 | 76.1 | inactive
Galk2 (galactokinase 2) | 1 | 68.8 | 43.7 | inactive
Galk2 (galactokinase 2) | 2 | 37.7 | 80.7 | inactive
Galk2 (galactokinase 2) | 3 | 71.6 | 76.4 | inactive
Or14c44 (olfactory receptor family 14 subfamily C member 44) | 1 | 26.6 | 13.2 | inactive
Or14c44 (olfactory receptor family 14 subfamily C member 44) | 2 | 66.4 | 68.1 | inactive
Or14c44 (olfactory receptor family 14 subfamily C member 44) | 3 | 129 | 112 | active
Rhbg (Rh family B glycoprotein) | 1 | 93.5 | 85 | inactive
Rhbg (Rh family B glycoprotein) | 2 | 54.1 | 68.1 | inactive
Rhbg (Rh family B glycoprotein) | 3 | 90.8 | 57.5 | inactive
Tgfbi (transforming growth factor, beta induced) | 1 | 39.2 | 53.9 | inactive
Tgfbi (transforming growth factor, beta induced) | 2 | 99.1 | 90.1 | inactive
Letm1 (leucine zipper-EF-hand containing transmembrane protein 1) | 1 | 67.2 | 101 | inactive
Letm1 (leucine zipper-EF-hand containing transmembrane protein 1) | 2 | 98.7 | 63.4 | inactive
Trpm3 | 1 | 105 | 81.5 | inactive
Trpm3 | 2 | 93.1 | 97.6 | inactive
Trpm3 | 3 | 29.6 | 35 | inactive
Kash5 (KASH domain containing 5) | 1 | 127 | 98.8 | active
Kash5 (KASH domain containing 5) | 2 | 54.6 | 88.9 | inactive
Kash5 (KASH domain containing 5) | 3 | 95.2 | 89.4 | inactive
Pygb (brain glycogen phosphorylase) | 1 | 68.5 | 72 | inactive
Pygb (brain glycogen phosphorylase) | 2 | 83.1 | 99.9 | inactive
Pygb (brain glycogen phosphorylase) | 3 | 52.6 | 50.4 | inactive
Atrip (ATR interacting protein) | 1 | 78 | 52.3 | inactive
Atrip (ATR interacting protein) | 2 | 106 | 101 | inactive
Atrip (ATR interacting protein) | 3 | 118 | 144 | inactive
Rnf170 (ring finger protein 170) | 1 | 79.3 | 84.9 | inactive
Rnf170 (ring finger protein 170) | 2 | 67.5 | 73.9 | inactive
Rnf170 (ring finger protein 170) | 3 | 58.9 | 71.8 | inactive
Tecta (tectorin alpha) | 1 | 66.6 | 66.1 | inactive
Tecta (tectorin alpha) | 2 | 111 | 81.7 | inactive
Tecta (tectorin alpha) | 3 | 70.3 | 75.1 | inactive
4933427D06Rik (RIKEN cDNA 4933427D06 gene) | 1 | 84.4 | 95.5 | inactive
4933427D06Rik (RIKEN cDNA 4933427D06 gene) | 2 | 46.9 | 70.9 | inactive
4933427D06Rik (RIKEN cDNA 4933427D06 gene) | 3 | 62.6 | 95.5 | inactive
Trim25 (tripartite motif-containing 25) | 1 | 84.5 | 82.9 | inactive
Trim25 (tripartite motif-containing 25) | 2 | 128 | 101 | active
Trim25 (tripartite motif-containing 25) | 3 | 98.4 | 117 | inactive
Mtx2 (metaxin 2) | 1 | 94.5 | 72.3 | inactive
Mtx2 (metaxin 2) | 2 | 75.1 | 61.4 | inactive
Mtx2 (metaxin 2) | 3 | 32.3 | 47.8 | inactive
Prss52 (serine protease 52) | 1 | 85.8 | 85.7 | inactive
Prss52 (serine protease 52) | 2 | 103 | 73 | inactive
Prss52 (serine protease 52) | 3 | 80.3 | 95.5 | inactive
Mix23 (mitochondrial matrix import factor 23) | 1 | 133 | 119 | active
Mix23 (mitochondrial matrix import factor 23) | 2 | 136 | 134 | active
Mix23 (mitochondrial matrix import factor 23) | 3 | 76.4 | 92.8 | inactive
Kif6 (kinesin family member 6) | 1 | 67.8 | 65.9 | inactive
Kif6 (kinesin family member 6) | 2 | 68.6 | 78.2 | inactive
4930447C04Rik (RIKEN cDNA 4930447C04 gene) | 1 | 99.4 | 109 | inactive
4930447C04Rik (RIKEN cDNA 4930447C04 gene) | 2 | 80.9 | 88.1 | inactive
4930447C04Rik (RIKEN cDNA 4930447C04 gene) | 3 | 90.4 | 139 | inactive
Usp4 (ubiquitin specific peptidase 4) | 1 | 88.1 | 90.1 | inactive
Usp4 (ubiquitin specific peptidase 4) | 2 | 82.9 | 79.9 | inactive
Usp4 (ubiquitin specific peptidase 4) | 3 | 37.4 | 35.6 | inactive
Dact2 (dishevelled-binding antagonist of beta-catenin 2) | 1 | 104 | 77.9 | inactive
Dact2 (dishevelled-binding antagonist of beta-catenin 2) | 2 | 48 | 70.4 | inactive
Dact2 (dishevelled-binding antagonist of beta-catenin 2) | 3 | 90.4 | 71.4 | inactive
Cops3 (COP9 signalosome subunit 3) | 1 | 66.4 | 56 | inactive
Cops3 (COP9 signalosome subunit 3) | 2 | 89.7 | 68.3 | inactive
Zbtb32 (zinc finger and BTB domain containing 32) | 1 | 94.3 | 65.1 | inactive
Zbtb32 (zinc finger and BTB domain containing 32) | 2 | 81.7 | 96.4 | inactive
Rab38 (RAB38, member RAS oncogene family) | 1 | 102 | 112 | inactive
Rab38 (RAB38, member RAS oncogene family) | 2 | 112 | 84.3 | inactive
Rab38 (RAB38, member RAS oncogene family) | 3 | 72.5 | 72.5 | inactive
Impg1 (interphotoreceptor matrix proteoglycan 1) | 1 | 124 | 118 | active
Impg1 (interphotoreceptor matrix proteoglycan 1) | 2 | 86.1 | 67.4 | inactive
Aplp2 (amyloid beta precursor-like protein 2) | 1 | 129 | 73.4 | active
Aplp2 (amyloid beta precursor-like protein 2) | 2 | 76.6 | 79.6 | inactive
Aplp2 (amyloid beta precursor-like protein 2) | 3 | 108 | 70.7 | inactive
Utp6 (UTP6 small subunit processome component) | 1 | 76.7 | 78.9 | inactive
Utp6 (UTP6 small subunit processome component) | 2 | 62.8 | 56 | inactive
Utp6 (UTP6 small subunit processome component) | 3 | 56.3 | 56.6 | inactive
Cysltr2 (cysteinyl leukotriene receptor 2) | 1 | 61.9 | 80.6 | inactive
Cysltr2 (cysteinyl leukotriene receptor 2) | 2 | 72.1 | 85.8 | inactive
Cysltr2 (cysteinyl leukotriene receptor 2) | 3 | 53.6 | 69.8 | inactive
Bcar3 (breast cancer anti-estrogen resistance 3) | 1 | 29.2 | 36.2 | inactive
Bcar3 (breast cancer anti-estrogen resistance 3) | 2 | 98.8 | 125 | inactive
Bcar3 (breast cancer anti-estrogen resistance 3) | 3 | 65.3 | 82.6 | inactive

Entries above whose gene name starts with F or f (3):
gene | siRNA no. | GFP, % of control | viability (ATP), % of control | outcome
Fv4 (Friend virus susceptibility 4) | 1 | 98.1 | 93.9 | inactive
Fv4 (Friend virus susceptibility 4) | 2 | 75 | 80.5 | inactive
Fv4 (Friend virus susceptibility 4) | 3 | 115 | 76.1 | inactive
